Measured data: PubChem BioAssay AID1224830 (NIAID, 2016)

- Assay: 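Regulators of TLR4 signalling towards TNF-alpha in macrophage-like cells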 (primary screen)
- Cell system: human THP-1 monocytic leukaemia cells, TNF dual-luciferase reporter clone, PMA-differentiated to macrophage-like cells
- Reagents: siRNA pool against human genes, 50 nM
- Timing: LPS for 4 h, given about 3 days after siRNA transfection
- Conditions: bacterial LPS (TLR4 ligand), 10 ng/ml
- Measurement: 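TNF firefly reporter luminescence divided by renilla, normalised to the plate median, then turned into a robust z-score for each replicate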
- Direction: TNF reporter robust z-score: higher = stronger TNF reporter response to LPS
- Hit rule: 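Each well counts as active if its z-score is over 2.8 or under -1.5; controls are left without a call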
The whole screen tested about 18,000 reagents; shown is an unselected part. About 2,900 of them (16%) were called active. 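Calls are made per well; low scores hint the gene aids the LPS response, high scores that it dampens it.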 A number with no mark means an inactive call. Repeated entries: four replicate wells of each siRNA pool.

Target gene	TNF reporter robust z-score
GPR50 (GeneID 9248)	-0.06
GPR50 (GeneID 9248)	-0.55
GPR50 (GeneID 9248)	0.55
GPR50 (GeneID 9248)	1.39
ART4 (GeneID 420)	-0.15
ART4 (GeneID 420)	1.47
ART4 (GeneID 420)	-0.8
ART4 (GeneID 420)	-0.64
THG1L (GeneID 54974)	-0.1
THG1L (GeneID 54974)	1.68
THG1L (GeneID 54974)	1.07
MS4A8 (GeneID 83661)	-0.09
MS4A8 (GeneID 83661)	0.16
MS4A8 (GeneID 83661)	-0.1
MS4A8 (GeneID 83661)	-0.11
FMNL1 (GeneID 752)	-0.81
FMNL1 (GeneID 752)	-0.39
FMNL1 (GeneID 752)	-0.96
FMNL1 (GeneID 752)	-0.18
RBM15 (GeneID 64783)	1.59
RBM15 (GeneID 64783)	3.14 (active)
RBM15 (GeneID 64783)	4.96 (active)
RBM15 (GeneID 64783)	1.05
RARS1 (GeneID 5917)	-1.16
RARS1 (GeneID 5917)	-0.29
RARS1 (GeneID 5917)	-0.81
RARS1 (GeneID 5917)	-0.88
BEND3 (GeneID 57673)	1.36
BEND3 (GeneID 57673)	1.57
BEND3 (GeneID 57673)	-0.75
BEND3 (GeneID 57673)	0.08
SEC14L3 (GeneID 266629)	-0.66
SEC14L3 (GeneID 266629)	-0.73
SEC14L3 (GeneID 266629)	-0.1
SEC14L3 (GeneID 266629)	-0.23
MRPS18A (GeneID 55168)	0.16
MRPS18A (GeneID 55168)	0.49
MRPS18A (GeneID 55168)	-1.01
MRPS18A (GeneID 55168)	0.51
XPNPEP2 (GeneID 7512)	-0.42
XPNPEP2 (GeneID 7512)	-0.24
XPNPEP2 (GeneID 7512)	-1.78 (active)
XPNPEP2 (GeneID 7512)	-0.22
ZNF704 (GeneID 619279)	-0.76
ZNF704 (GeneID 619279)	-0.33
ZNF704 (GeneID 619279)	-0.17
ZNF704 (GeneID 619279)	1
MTMR6 (GeneID 9107)	-0.22
MTMR6 (GeneID 9107)	0.91
MTMR6 (GeneID 9107)	0.96
MTMR6 (GeneID 9107)	0.79
TRIML1 (GeneID 339976)	-0.34
TRIML1 (GeneID 339976)	-0.21
TRIML1 (GeneID 339976)	1.42
CTNND1 (GeneID 1500)	-1.52 (active)
CTNND1 (GeneID 1500)	-1.47
CTNND1 (GeneID 1500)	-1.48
CTNND1 (GeneID 1500)	-0.88
ITIH4 (GeneID 3700)	-1.16
ITIH4 (GeneID 3700)	-0.75
ITIH4 (GeneID 3700)	-1.22
ITIH4 (GeneID 3700)	-0.16
ATP13A2 (GeneID 23400)	0.27
ATP13A2 (GeneID 23400)	0.52
ATP13A2 (GeneID 23400)	-0.32
ATP13A2 (GeneID 23400)	-0.06
PCED1A (GeneID 64773)	0.21
PCED1A (GeneID 64773)	0.12
PCED1A (GeneID 64773)	0.14
PCED1A (GeneID 64773)	-0.34
STXBP1 (GeneID 6812)	-0.6
STXBP1 (GeneID 6812)	2.52
STXBP1 (GeneID 6812)	0.64
STXBP1 (GeneID 6812)	1.96
DAG1 (GeneID 1605)	-1.49
DAG1 (GeneID 1605)	-0.17
DAG1 (GeneID 1605)	-0.09
DAG1 (GeneID 1605)	1.29
C1QTNF9 (GeneID 338872)	0.05
C1QTNF9 (GeneID 338872)	-0.79
C1QTNF9 (GeneID 338872)	0.11
C1QTNF9 (GeneID 338872)	0.14
NOXO1 (GeneID 124056)	0.29
NOXO1 (GeneID 124056)	0.13
NOXO1 (GeneID 124056)	-0.12
NOXO1 (GeneID 124056)	0.23
RAB9B (GeneID 51209)	1.41
RAB9B (GeneID 51209)	1.28
RAB9B (GeneID 51209)	1.17
RAB9B (GeneID 51209)	1.99
COL26A1 (GeneID 136227)	0.06
COL26A1 (GeneID 136227)	0.33
COL26A1 (GeneID 136227)	0.18
COL26A1 (GeneID 136227)	0.69
CCN3 (GeneID 4856)	0.21
CCN3 (GeneID 4856)	-0.07
CCN3 (GeneID 4856)	0.15
CCN3 (GeneID 4856)	0.02
UST (GeneID 10090)	0.47
UST (GeneID 10090)	0.78
UST (GeneID 10090)	-0.06
UST (GeneID 10090)	-0.24
CELSR1 (GeneID 9620)	-0.96
CELSR1 (GeneID 9620)	-0.4
CELSR1 (GeneID 9620)	-0.16
CELSR1 (GeneID 9620)	-0.97
KRTAP9-4 (GeneID 85280)	0.37
KRTAP9-4 (GeneID 85280)	3.01 (active)
KRTAP9-4 (GeneID 85280)	2.75
KRTAP9-4 (GeneID 85280)	2.33
CHRNG (GeneID 1146)	-1.24
CHRNG (GeneID 1146)	0.59
CHRNG (GeneID 1146)	-0.4
CHRNG (GeneID 1146)	0.83
CCDC54 (GeneID 84692)	-0.41
CCDC54 (GeneID 84692)	0.21
CCDC54 (GeneID 84692)	1.03
CCDC54 (GeneID 84692)	0.8
U2AF1L4 (GeneID 199746)	0.16
U2AF1L4 (GeneID 199746)	0.38
U2AF1L4 (GeneID 199746)	-0.31
U2AF1L4 (GeneID 199746)	0.05
ULK2 (GeneID 9706)	0.25
ULK2 (GeneID 9706)	-0.72
ULK2 (GeneID 9706)	0
ULK2 (GeneID 9706)	-0.06
SLC22A3 (GeneID 6581)	0.65
SLC22A3 (GeneID 6581)	1.25
SLC22A3 (GeneID 6581)	1.93
SLC22A3 (GeneID 6581)	1.4
CABP1 (GeneID 9478)	0.6
CABP1 (GeneID 9478)	-0.37
CABP1 (GeneID 9478)	0
CABP1 (GeneID 9478)	2.04
RARG (GeneID 5916)	0.41
RARG (GeneID 5916)	-0.79
RARG (GeneID 5916)	-1.09
RARG (GeneID 5916)	-0.68
OR9K2 (GeneID 441639)	3.03 (active)
OR9K2 (GeneID 441639)	-0.65
OR9K2 (GeneID 441639)	0.17
OR9K2 (GeneID 441639)	1.26

Reformatted: 14 of the entries above.
PCED1A (GeneID 64773) | TNF reporter robust z-score: 0.12
PCED1A (GeneID 64773) | TNF reporter robust z-score: 0.14
PCED1A (GeneID 64773) | TNF reporter robust z-score: -0.34
STXBP1 (GeneID 6812) | TNF reporter robust z-score: -0.6
STXBP1 (GeneID 6812) | TNF reporter robust z-score: 2.52
STXBP1 (GeneID 6812) | TNF reporter robust z-score: 0.64
STXBP1 (GeneID 6812) | TNF reporter robust z-score: 1.96
DAG1 (GeneID 1605) | TNF reporter robust z-score: -1.49
DAG1 (GeneID 1605) | TNF reporter robust z-score: -0.17
DAG1 (GeneID 1605) | TNF reporter robust z-score: -0.09
DAG1 (GeneID 1605) | TNF reporter robust z-score: 1.29
C1QTNF9 (GeneID 338872) | TNF reporter robust z-score: 0.05
C1QTNF9 (GeneID 338872) | TNF reporter robust z-score: -0.79
C1QTNF9 (GeneID 338872) | TNF reporter robust z-score: 0.11
